No constants are given. Whether binding was seen depends on the method and setting. Some entries that bind do so weakly or less than the wild type.
Molecular target: (His)6-p27 (UniProt P46527)
Experiment: pull-down; FLAG-SMURF1 rocked with (His)6-p27 and BSA-blocked Ni-NTA beads, 4 °C, 2 h, 40 mM Tris pH 7.6, 5 mM MgCl2, 2 mM DTT; beads washed 5x; Western blot for SMURF1 and p27; both purified

The chains behind the UniProt entries cited, without tags or fusion partners.
UniProt P46527: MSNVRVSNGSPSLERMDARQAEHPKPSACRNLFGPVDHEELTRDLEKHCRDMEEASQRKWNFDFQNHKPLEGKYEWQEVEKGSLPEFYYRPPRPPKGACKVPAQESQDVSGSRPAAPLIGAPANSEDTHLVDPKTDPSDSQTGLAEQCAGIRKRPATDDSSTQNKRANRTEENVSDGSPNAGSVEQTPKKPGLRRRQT
UniProt Q9HCE7: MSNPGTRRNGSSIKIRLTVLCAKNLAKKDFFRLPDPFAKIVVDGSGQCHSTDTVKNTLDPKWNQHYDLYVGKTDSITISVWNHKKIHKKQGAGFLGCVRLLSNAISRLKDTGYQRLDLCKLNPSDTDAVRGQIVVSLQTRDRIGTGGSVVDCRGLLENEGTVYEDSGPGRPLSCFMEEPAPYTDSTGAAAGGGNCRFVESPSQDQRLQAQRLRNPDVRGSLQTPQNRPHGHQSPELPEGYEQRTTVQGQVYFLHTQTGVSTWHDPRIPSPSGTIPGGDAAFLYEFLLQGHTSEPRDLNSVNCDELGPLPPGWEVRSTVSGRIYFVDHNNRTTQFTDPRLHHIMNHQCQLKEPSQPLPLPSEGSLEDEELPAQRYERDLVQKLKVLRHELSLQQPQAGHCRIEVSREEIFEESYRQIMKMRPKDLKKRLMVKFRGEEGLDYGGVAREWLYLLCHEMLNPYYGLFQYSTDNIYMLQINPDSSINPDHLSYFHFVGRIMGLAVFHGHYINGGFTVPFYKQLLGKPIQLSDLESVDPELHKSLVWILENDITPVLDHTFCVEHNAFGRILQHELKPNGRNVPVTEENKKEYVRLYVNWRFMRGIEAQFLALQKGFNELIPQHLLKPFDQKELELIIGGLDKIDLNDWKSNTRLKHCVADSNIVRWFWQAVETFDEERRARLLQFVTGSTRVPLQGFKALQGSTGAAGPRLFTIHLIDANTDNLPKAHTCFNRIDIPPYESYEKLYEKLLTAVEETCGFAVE

For “FLAG-SMURF1 (from UniProt Q9HCE7 1-757) (enzyme)”, the binding was “binds”.

Reference: PMC10897894
